Measurements as given in publication doi:10.1101/2024.09.05.611512.
Results are given in words; binding and its absence hold for the method and conditions named. Binding seen in cells or lysates may run through a third protein. These calls come from enrichment with a bait or labelling near it, and not all partners need be listed.

Molecular target: CAPN2[C105S]-3xFlag-6xHis in complex with calpain small subunit CAPNS1(86–268)
Test: affinity purification with mass spectrometry; 3xFlag peptide, dCAPN1-3xFlag or dCAPN2-3xFlag bait on anti-Flag agarose beads; HCT116 cytosol with 2 mM CaCl2 and E64; EGTA elutions analysed by mass spectrometry; only the target purified

binding	Binder
binds	annexin A1 (protein, UniProt P04083 1-346) MAMVSEFLKQAWFIENEEQEYVQTVKSSKGGPGSAVSPYPTFNPSSDVAALHKAIMVKGVDEATIIDILTKRNNAQRQQIKAAYLQETGKPLDETLKKALTGHLEEVVLALLKTPAQFDADELRAAMKGLGTDEDTLIEILASRTNKEIRDINRVYREELKRDLAKDITSDTSGDFRNALLSLAKGDRSEDFGVNEDLADSDARALYEAGERRKGTDVNVFNTILTTRSYPQLRRVFQKYTKYSKHDMNKVLDLELKGDIEKCLTAIVKCATSKPAFFAEKLHQAMKGVGTRHKALIRIMVSRSEIDMNDIKAFYQKMYGISLCQAILDETKGDYEKILVALCGGN
binds	annexin A4 (protein, UniProt P09525 1-319) MATKGGTVKAASGFNAMEDAQTLRKAMKGLGTDEDAIISVLAYRNTAQRQEIRTAYKSTIGRDLIDDLKSELSGNFEQVIVGMMTPTVLYDVQELRRAMKGAGTDEGCLIEILASRTPEEIRRISQTYQQQYGRSLEDDIRSDTSFMFQRVLVSLSAGGRDEGNYLDDALVRQDAQDLYEAGEKKWGTDEVKFLTVLCSRNRNHLLHVFDEYKRISQKDIEQSIKSETSGSFEDALLAIVKCMRNKSAYFAEKLYKSMKGLGTDDNTLIRVMVSRAEIDMLDIRAHFKRLYGKSLYSFIKGDTSGDYRKVLLVLCGGDD
binds	annexin A6 (protein, UniProt P08133 1-673) MAKPAQGAKYRGSIHDFPGFDPNQDAEALYTAMKGFGSDKEAILDIITSRSNRQRQEVCQSYKSLYGKDLIADLKYELTGKFERLIVGLMRPPAYCDAKEIKDAISGIGTDEKCLIEILASRTNEQMHQLVAAYKDAYERDLEADIIGDTSGHFQKMLVVLLQGTREEDDVVSEDLVQQDVQDLYEAGELKWGTDEAQFIYILGNRSKQHLRLVFDEYLKTTGKPIEASIRGELSGDFEKLMLAVVKCIRSTPEYFAERLFKAMKGLGTRDNTLIRIMVSRSELDMLDIREIFRTKYEKSLYSMIKNDTSGEYKKTLLKLSGGDDDAAGQFFPEAAQVAYQMWELSAVARVELKGTVRPANDFNPDADAKALRKAMKGLGTDEDTIIDIITHRSNVQRQQIRQTFKSHFGRDLMTDLKSEISGDLARLILGLMMPPAHYDAKQLKKAMEGAGTDEKALIEILATRTNAEIRAINEAYKEDYHKSLEDALSSDTSGHFRRILISLATGHREEGGENLDQAREDAQVAAEILEIADTPSGDKTSLETRFMTILCTRSYPHLRRVFQEFIKMTNYDVEHTIKKEMSGDVRDAFVAIVQSVKNKPLFFADKLYKSMKGAGTDEKTLTRIMVSRSEIDLLNIRREFIEKYDKSLHQAIEGDTSGDFLKALLALCGGED
binds	annexin A7 (protein, UniProt P20073 1-488) MSYPGYPPTGYPPFPGYPPAGQESSFPPSGQYPYPSGFPPMGGGAYPQVPSSGYPGAGGYPAPGGYPAPGGYPGAPQPGGAPSYPGVPPGQGFGVPPGGAGFSGYPQPPSQSYGGGPAQVPLPGGFPGGQMPSQYPGGQPTYPSQINTDSFSSYPVFSPVSLDYSSEPATVTQVTQGTIRPAANFDAIRDAEILRKAMKGFGTDEQAIVDVVANRSNDQRQKIKAAFKTSYGKDLIKDLKSELSGNMEELILALFMPPTYYDAWSLRKAMQGAGTQERVLIEILCTRTNQEIREIVRCYQSEFGRDLEKDIRSDTSGHFERLLVSMCQGNRDENQSINHQMAQEDAQRLYQAGEGRLGTDESCFNMILATRSFPQLRATMEAYSRMANRDLLSSVSREFSGYVESGLKTILQCALNRPAFFAERLYYAMKGAGTDDSTLVRIVVTRSEIDLVQIKQMFAQMYQKTLGTMIAGDTSGDYRRLLLAIVGQ
